Measured values from the supplement of paper PMC7666118.
Some of the results follow.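 How the source made its calls: active = dose-dependent thermal stabilisation significant by F-test of dose-response against flat model at 10% FDR; inactive = not significant.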

The chains behind the UniProt entries cited, without tags or fusion partners. Where a name states a change or a piece, a line headed by the entry shows the natural chain unless it says otherwise.
UniProt Q8IWZ8: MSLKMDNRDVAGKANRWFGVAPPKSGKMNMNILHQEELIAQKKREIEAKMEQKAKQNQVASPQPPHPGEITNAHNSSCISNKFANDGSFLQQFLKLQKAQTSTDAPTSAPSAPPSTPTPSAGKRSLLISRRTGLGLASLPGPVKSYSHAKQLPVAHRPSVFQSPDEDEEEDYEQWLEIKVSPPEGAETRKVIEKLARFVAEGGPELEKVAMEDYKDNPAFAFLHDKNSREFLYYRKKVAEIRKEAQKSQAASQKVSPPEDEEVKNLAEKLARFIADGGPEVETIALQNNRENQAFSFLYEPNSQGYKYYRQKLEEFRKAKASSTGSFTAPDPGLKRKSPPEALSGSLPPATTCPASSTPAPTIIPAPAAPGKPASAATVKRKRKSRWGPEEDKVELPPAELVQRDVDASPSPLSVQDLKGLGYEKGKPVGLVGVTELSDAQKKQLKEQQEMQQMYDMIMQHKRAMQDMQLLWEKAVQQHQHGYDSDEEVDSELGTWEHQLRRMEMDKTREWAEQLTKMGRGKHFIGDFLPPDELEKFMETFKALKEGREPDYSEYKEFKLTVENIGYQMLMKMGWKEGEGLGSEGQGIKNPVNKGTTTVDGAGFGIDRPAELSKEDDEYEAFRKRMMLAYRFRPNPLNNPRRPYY
UniProt Q8N3U4: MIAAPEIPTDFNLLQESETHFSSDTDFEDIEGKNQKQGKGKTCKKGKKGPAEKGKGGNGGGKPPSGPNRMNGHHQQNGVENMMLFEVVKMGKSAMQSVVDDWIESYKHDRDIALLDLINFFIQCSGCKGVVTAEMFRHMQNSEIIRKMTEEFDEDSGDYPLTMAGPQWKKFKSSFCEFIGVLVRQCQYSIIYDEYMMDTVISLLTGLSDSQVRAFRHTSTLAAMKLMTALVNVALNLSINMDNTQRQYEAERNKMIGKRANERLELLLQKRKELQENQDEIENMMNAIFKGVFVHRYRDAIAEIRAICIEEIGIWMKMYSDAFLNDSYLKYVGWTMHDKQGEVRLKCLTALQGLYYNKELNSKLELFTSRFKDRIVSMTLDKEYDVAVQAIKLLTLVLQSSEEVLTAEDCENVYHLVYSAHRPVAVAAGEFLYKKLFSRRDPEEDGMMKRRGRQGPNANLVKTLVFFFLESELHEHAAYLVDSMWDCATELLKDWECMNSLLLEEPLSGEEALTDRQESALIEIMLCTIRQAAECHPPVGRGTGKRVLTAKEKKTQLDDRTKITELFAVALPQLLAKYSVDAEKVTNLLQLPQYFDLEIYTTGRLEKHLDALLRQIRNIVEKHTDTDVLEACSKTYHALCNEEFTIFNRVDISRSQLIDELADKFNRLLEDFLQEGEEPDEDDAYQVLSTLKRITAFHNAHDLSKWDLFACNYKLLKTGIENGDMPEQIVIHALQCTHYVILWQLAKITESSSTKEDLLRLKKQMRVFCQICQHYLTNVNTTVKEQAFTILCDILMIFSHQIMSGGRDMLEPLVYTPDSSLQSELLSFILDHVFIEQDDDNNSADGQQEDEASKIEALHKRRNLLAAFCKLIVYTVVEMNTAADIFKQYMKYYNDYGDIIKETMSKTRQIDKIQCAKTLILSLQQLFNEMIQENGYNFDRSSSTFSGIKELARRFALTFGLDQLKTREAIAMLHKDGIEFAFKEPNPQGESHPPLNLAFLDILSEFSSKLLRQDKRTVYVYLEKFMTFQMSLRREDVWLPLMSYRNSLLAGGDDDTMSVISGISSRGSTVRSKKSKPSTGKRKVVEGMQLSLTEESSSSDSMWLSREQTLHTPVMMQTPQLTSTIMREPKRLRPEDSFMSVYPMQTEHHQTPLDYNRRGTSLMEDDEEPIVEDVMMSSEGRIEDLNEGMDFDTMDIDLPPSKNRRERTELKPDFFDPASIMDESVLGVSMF
UniProt Q07955, whole entry: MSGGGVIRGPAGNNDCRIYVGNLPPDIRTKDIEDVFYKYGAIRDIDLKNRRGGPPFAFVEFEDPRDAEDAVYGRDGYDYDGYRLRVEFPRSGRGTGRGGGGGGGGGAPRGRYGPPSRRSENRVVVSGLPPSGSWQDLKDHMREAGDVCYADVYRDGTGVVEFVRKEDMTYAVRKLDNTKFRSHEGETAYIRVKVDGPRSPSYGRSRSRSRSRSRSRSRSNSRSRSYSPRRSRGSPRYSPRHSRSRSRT
UniProt Q969G3, whole entry: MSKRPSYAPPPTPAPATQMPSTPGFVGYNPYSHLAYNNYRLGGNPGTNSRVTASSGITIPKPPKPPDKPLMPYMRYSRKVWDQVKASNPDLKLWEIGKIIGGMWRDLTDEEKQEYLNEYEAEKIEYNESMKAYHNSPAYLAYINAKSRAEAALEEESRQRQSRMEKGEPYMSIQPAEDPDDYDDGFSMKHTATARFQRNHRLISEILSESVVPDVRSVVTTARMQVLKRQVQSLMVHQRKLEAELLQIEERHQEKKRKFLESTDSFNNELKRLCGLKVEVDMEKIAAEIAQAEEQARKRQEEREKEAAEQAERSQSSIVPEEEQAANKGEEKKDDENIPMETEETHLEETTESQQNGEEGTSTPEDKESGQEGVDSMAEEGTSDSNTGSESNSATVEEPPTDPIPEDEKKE
UniProt O60499: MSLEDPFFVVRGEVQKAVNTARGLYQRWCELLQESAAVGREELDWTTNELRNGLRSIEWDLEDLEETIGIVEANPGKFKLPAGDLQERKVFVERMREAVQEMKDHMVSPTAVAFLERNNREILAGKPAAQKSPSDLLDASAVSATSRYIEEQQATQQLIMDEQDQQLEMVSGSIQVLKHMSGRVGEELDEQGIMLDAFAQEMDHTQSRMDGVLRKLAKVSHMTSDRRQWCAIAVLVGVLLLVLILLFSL
UniProt P63208, whole entry: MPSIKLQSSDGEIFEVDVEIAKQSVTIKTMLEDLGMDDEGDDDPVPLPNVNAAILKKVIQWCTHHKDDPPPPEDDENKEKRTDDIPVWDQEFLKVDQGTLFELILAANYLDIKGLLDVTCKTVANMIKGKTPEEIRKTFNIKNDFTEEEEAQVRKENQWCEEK
UniProt P31948, whole entry, looked up: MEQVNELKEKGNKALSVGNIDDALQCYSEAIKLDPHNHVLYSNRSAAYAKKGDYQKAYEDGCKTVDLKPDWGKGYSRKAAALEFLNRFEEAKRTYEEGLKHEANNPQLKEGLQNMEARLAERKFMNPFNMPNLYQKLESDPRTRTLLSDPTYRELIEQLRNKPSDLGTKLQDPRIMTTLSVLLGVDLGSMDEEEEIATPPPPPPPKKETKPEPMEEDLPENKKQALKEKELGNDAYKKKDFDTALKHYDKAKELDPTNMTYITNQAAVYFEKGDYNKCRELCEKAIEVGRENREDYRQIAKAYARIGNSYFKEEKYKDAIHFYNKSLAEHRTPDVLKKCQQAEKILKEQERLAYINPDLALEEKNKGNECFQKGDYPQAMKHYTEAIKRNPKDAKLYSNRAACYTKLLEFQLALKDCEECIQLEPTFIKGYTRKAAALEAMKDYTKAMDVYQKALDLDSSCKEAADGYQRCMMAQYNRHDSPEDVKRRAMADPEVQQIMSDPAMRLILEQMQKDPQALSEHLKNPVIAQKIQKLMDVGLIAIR
UniProt Q9H0F6: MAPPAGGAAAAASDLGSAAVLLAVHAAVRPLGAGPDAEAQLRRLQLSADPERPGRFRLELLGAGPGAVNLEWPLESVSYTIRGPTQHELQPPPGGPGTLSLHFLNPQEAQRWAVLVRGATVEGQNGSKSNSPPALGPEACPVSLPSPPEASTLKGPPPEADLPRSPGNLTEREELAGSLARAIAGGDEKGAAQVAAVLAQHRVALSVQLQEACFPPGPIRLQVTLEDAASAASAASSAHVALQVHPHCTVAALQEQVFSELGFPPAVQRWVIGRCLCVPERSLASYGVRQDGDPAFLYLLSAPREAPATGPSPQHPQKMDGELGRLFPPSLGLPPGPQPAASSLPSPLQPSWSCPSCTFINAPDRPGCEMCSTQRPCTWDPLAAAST
UniProt Q96I99: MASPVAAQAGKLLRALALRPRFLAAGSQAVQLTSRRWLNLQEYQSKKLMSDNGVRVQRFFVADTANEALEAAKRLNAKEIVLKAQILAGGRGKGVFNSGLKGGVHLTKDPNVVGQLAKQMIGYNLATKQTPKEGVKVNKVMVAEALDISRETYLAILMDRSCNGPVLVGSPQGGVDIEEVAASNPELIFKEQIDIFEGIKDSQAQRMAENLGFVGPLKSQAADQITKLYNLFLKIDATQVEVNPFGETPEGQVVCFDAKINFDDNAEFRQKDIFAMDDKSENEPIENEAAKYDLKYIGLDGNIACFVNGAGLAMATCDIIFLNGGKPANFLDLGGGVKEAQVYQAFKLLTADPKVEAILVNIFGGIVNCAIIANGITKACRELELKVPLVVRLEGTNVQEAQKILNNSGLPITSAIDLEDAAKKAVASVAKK
UniProt Q13242, whole entry: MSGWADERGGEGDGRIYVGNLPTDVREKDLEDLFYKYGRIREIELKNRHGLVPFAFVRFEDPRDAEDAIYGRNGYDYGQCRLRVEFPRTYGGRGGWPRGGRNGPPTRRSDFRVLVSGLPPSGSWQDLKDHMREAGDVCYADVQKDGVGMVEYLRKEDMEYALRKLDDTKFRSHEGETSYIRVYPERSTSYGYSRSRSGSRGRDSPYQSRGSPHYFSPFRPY
UniProt O95391: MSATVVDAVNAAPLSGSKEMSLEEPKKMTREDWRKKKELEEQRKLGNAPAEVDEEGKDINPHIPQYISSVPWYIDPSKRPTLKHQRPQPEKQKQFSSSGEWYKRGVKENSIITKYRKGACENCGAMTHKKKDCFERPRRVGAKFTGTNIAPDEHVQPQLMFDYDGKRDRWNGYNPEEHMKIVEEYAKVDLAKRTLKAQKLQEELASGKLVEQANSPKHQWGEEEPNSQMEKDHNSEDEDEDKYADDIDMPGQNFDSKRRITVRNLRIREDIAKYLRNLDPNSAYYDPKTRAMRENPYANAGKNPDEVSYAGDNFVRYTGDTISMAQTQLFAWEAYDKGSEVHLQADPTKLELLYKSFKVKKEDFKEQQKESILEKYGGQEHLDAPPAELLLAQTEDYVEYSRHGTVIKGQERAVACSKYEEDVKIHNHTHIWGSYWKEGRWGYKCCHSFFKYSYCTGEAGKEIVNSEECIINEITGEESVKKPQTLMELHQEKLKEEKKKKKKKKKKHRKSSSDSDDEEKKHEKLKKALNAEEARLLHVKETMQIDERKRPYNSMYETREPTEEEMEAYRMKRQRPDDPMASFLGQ
UniProt Q86US8: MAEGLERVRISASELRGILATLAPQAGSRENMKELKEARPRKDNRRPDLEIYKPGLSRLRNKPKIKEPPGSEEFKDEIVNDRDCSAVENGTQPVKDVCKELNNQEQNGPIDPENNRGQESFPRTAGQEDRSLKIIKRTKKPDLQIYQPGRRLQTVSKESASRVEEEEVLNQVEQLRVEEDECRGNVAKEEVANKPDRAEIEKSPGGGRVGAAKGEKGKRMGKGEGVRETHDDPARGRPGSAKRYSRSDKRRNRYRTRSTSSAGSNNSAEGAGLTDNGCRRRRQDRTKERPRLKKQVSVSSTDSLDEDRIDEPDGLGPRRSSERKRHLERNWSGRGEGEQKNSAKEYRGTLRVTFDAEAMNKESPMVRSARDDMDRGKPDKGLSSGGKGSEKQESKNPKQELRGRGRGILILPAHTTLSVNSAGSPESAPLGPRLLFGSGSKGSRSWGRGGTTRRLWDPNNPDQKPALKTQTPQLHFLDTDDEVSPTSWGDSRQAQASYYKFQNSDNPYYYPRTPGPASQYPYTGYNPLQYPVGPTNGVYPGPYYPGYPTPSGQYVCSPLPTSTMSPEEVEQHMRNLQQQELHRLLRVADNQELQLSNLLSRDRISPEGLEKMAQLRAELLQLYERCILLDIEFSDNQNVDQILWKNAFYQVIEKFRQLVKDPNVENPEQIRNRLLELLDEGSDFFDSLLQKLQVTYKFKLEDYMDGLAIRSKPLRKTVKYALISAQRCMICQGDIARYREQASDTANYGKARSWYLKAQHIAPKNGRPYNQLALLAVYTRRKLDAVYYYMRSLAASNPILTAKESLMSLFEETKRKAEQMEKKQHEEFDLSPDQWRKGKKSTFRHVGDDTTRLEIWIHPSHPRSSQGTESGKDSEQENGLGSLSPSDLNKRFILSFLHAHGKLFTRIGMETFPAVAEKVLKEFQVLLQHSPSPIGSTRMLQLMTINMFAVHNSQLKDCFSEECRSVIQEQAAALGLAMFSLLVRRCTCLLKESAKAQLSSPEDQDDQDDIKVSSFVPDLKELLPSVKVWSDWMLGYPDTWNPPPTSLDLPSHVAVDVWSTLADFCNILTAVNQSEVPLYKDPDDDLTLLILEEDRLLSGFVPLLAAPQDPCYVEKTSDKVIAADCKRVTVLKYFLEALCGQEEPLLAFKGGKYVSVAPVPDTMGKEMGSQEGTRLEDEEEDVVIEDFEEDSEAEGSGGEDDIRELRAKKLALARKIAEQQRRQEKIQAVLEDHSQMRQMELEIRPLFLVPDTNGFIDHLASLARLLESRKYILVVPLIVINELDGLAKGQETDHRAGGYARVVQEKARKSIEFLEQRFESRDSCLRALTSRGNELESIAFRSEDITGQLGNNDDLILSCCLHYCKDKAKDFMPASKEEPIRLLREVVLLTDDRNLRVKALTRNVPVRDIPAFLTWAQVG

compound: Nc1nc2c(ncn2[C@@H]2O[C@H](COP(=O)(O)OP(=O)(O)OP(=O)(O)O)[C@@H](O)[C@H]2O)c(=O)[nH]1; test: dose-dependent thermal stabilisation call (2D-TPP, DLPTP, 10% FDR) (binary (1 = stabilised)); higher = stabilised by the compound; conditions: system: Jurkat gel-filtered lysate; concentration range 1-500 µM
Protocol: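 2D thermal proteome profiling in gel-filtered Jurkat E6.1 lysate (2 mg/ml) treated with NaGTP (0, 1, 10, 100, 500 uM) for 10 min at room temperature, then heated 3 min at one of 12 temperatures (42-63.9 C). Soluble protein was quantified by TMT10 MS. The value is the DLPTP call of the paper: dose-dependent thermal stabilisation over all temperatures at 10% FDR (F-test of a dose-response against a flat model); one experiment, one call per tested protein.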

Target | dose-dependent thermal stabilisation call
SMC5 (UniProt Q8IY18) | active: 1
SUPT7L (UniProt O94864) | inactive: 0
SUGP1 (UniProt Q8IWZ8) | inactive: 0
STAU1 (UniProt O95793) | inactive: 0
SSNA1 (UniProt O43805) | inactive: 0
SRPK2 (UniProt P78362) | inactive: 0
SRP68 (UniProt Q9UHB9) | active: 1
SREK1 (UniProt Q8WXA9) | inactive: 0
SSBP3 (UniProt Q9BWW4) | inactive: 0
SP2 (UniProt Q02086) | inactive: 0
SUCLA2 (UniProt Q9P2R7) | active: 1
SRPK1 (UniProt Q96SB4) | inactive: 0
STAG2 (UniProt Q8N3U4) | inactive: 0
SRSF1 (UniProt Q07955) | active: 1
SMARCE1 (UniProt Q969G3) | inactive: 0
SYNE1 (UniProt Q8NF91) | inactive: 0
TAB1 (UniProt Q15750) | inactive: 0
STX10 (UniProt O60499) | inactive: 0
SUCLG1 (UniProt P53597) | active: 1
SPC24 (UniProt Q8NBT2) | inactive: 0

For convenience, some entries already given.
Target | dose-dependent thermal stabilisation call
TAB1 (UniProt Q15750) | inactive: 0
STX10 (UniProt O60499) | inactive: 0

Later entries.

Target | dose-dependent thermal stabilisation call
TACO1 (UniProt Q9BSH4) | inactive: 0
SUMF2 (UniProt Q8NBJ7) | inactive: 0
SKP1 (UniProt P63208) | inactive: 0
STIP1 (UniProt P31948) | inactive: 0
SRSF5 (UniProt Q13243) | active: 1
SHARPIN (UniProt Q9H0F6) | inactive: 0
SRP14 (UniProt P37108) | inactive: 0
SUGP2 (UniProt Q8IX01) | inactive: 0
STAT5B (UniProt P51692) | inactive: 0
STX17 (UniProt P56962) | inactive: 0
SMS (UniProt P52788) | inactive: 0
SUCLG2 (UniProt Q96I99) | active: 1
STK26 (UniProt Q9P289) | inactive: 0
SRSF9 (UniProt Q13242) | active: 1
SIPA1 (UniProt Q96FS4) | inactive: 0
SRM (UniProt P19623) | active: 1
SON (UniProt P18583) | active: 1
SMAD2 (UniProt Q15796) | inactive: 0
SLU7 (UniProt O95391) | inactive: 0
SMG6 (UniProt Q86US8) | inactive: 0
